# Some of the results follow.
# Tested on: T1, CTL2-GFP (C. trachomatis L2/434/Bu, GFP-expressing)
# T1 construct: L2/434/Bu, GFP-expressing
# Parameters: species or system HeLa; Intracellular C. trachomatis growth in HeLa cells, bulk GFP fluorescence relative to DMSO
# Details: bulk GFP, single well; 28.5 h, 10 µM; inhibitor
row,Structure (SMILES),% of control remaining
1,OC(COc1c(Br)cccc1Br)CN1CCCCC1 (stereo not drawn) [CBK003077T],136.421%
2,CCN(CC)C(=O)C1CCCN(C(=O)NC(c2ccccc2)c2ccccc2)C1 (stereo not drawn) [CBK156125],120.966%
3,CCC(=O)Oc1ccc(/N=C2/NC(C)(C)O2)cc1 [CBK010922],156.19%
4,Cc1n[nH]c(C)c1C1COCCN1C(=O)c1cccc(F)c1 (stereo not drawn) [CBK305105],132.704%
5,Cc1ccc(S(=O)(=O)c2ccc(C)c(S(=O)(=O)N3CCC(C)CC3)c2)cc1S(=O)(=O)N1CCC(C)CC1 [CBK261743],99.8852%
6,O=C1COc2ccc(C(=O)CSc3nnc(C4CC4)n3C3CC3)cc2N1 [CBK297110],145.364%
7,O=S(=O)(N1CCCCC1)N1CCN(CC(O)COc2ccc(-c3ccccc3)cc2)CC1 (stereo not drawn) [CBK269370],134.285%
8,CC1CCc2nn(CCNC(=O)c3ccco3)c(=O)cc2C1 (stereo not drawn) [CBK284481],117.066%
9,c1cc(-c2nccnc2Oc2ccc3c(c2)OCO3)ccn1 [CBK106726],117.277%
10,Cc1ccc(Cl)c(OC(C)C(=O)N(CCCO)Cc2ccncc2)c1 (stereo not drawn) [CBK305432],99.3088%
11,CC(C)CNc1nc(-c2cccc(N(C)C)c2)cnc1N [CBK063870],135.949%
12,O=C(NC(c1ccc(Cl)cc1)c1cnccn1)C1CCN(C(=O)c2ccccc2)CC1 (stereo not drawn) [CBK059634],144.102%
13,O=C(NCc1nc(-c2ccccc2)no1)C(c1cccs1)c1cccs1 [CBK286340],96.9089%
14,c1ccc(Oc2ccc(Nc3ccc(-c4cccc5cccnc45)cn3)cc2)cc1 [CBK037643],94.194%
15,NCCCNc1ccc(-c2ccco2)cn1 [CBK036911],162.156%
16,CCCNC(=O)C1(Cc2ccccc2-c2ccccc2)CCN(C(=O)c2ccccc2)CC1 [CBK286275],131.558%
17,CS(=O)(=O)CCC(C(=O)O)N1C(=O)c2ccc(C(=O)O)cc2C1=O (stereo not drawn) [CBK265719],179.154%
18,CC(C)n1nccc1C(=O)NC1CCN(Cc2cccc(F)c2)CC1 [CBK282596],122.938%
19,CCc1c[nH]c(SCC(=O)c2cc(C)n(C3CCS(=O)(=O)C3)c2C)n1 (stereo not drawn) [CBK306486],122.848%
20,COc1cc2c(cc1OC)C(CCCC#N)=[N+](C)C(C)(C)C2 [CBK008807I],128.04%
21,CCOc1ccc2nc(NC(=O)c3nc(SCc4ccccc4)ncc3Cl)sc2c1 [CBK269109],135.793%
22,O=C(O)c1cccc(N2C(=O)c3cccc4c(Cl)ccc(c34)C2=O)c1 [CBK299836],134.436%
23,COCCCNC(=O)C1CCN(c2nc3c(-c4cccc(C)c4)csc3c(=O)[nH]2)CC1 [CBK215630],138.93%
24,Cc1cc(NC(=O)CN2CCN(Cc3ccc4c(c3)CCO4)CC2)on1 [CBK305610],142.737%
25,O=C1N=C(NC2CCCCCC2)SC1CC(=O)N1CCOC12CCCCC2 (stereo not drawn) [CBK067355],137.829%
26,CCN(CC)C(=O)CN1CCCN(c2cc(OCCN3C(=O)CCC3=O)ncn2)CC1 [CBK083266T],140.927%

row,Structure (SMILES),% of control remaining
1,CN(C)c1ncccc1OC1CCN(c2nnc(C(F)(F)F)s2)C1 (stereo not drawn) [CBK304789],142.157%
2,O=C(CCCOc1ccc(Cl)cc1)n1ccn(CCc2cccs2)c1=O [CBK106614],125.182%
3,C=CCn1c(Cc2csc(NC(=O)c3ccc(C)cc3)n2)n[nH]c1=S [CBK295292],183.115%
4,Cc1cccc(-c2ccc(CC3(C(=O)NC(C)C)CCN(C(=O)C4CC4)CC3)cc2)c1 [CBK285757],126.857%
5,COc1ccc(-c2n[nH]c(=S)n2CCC(=O)NCCc2cc(C)n(-c3ccccc3)c2C)cc1 [CBK295632],116.152%
6,CC(Cn1cncn1)C(=O)N1CCc2sccc2C1C (stereo not drawn) [CBK282080],125.674%
7,COc1ccccc1-n1nc(-c2ccncc2)nc1C(C)NS(C)(=O)=O (stereo not drawn) [CBK306868],87.3675%
8,O=c1c2ccccc2nc2n1CCN(Cc1ccccc1)CC2 [CBK284790],111.854%
9,CS(=O)(=O)NC1CCN(C2CCc3c(Cl)cccc32)CC1 (stereo not drawn) [CBK305252],138.33%
10,O=[N+]([O-])c1nn(-c2ccc3c(c2)OCCO3)[n+]([O-])c1NCCN1CCN(c2ccccc2F)CC1 [CBK268314],52.4315%
11,COc1cc(CNCc2ccc(F)cc2)cc(Cl)c1OCC(N)=O [CBK270256C],108.967%
12,CC(C)C(=O)Nc1nc2c([nH]c(=O)n2[C@H]2C[C@@H](O)[C@@H](CO)O2)c(=O)[nH]1 [CBK201202],165.501%
13,CN1CCN(CCC(=O)N/N=C/c2c[nH]c3ccccc23)CC1 [CBK261502],106.91%
14,COc1ccccc1N1CCN(C(=O)Nc2cccnc2)CC1 [CBK155617],91.8884%
15,Cc1cnc2[nH]c(C3CCCN(C(=O)c4cn(C)nc4C)C3)cc2c1 (stereo not drawn) [CBK285170],80.7465%
16,COc1ccc(CCNC(=S)NN2CCN(C)CC2)cc1OC [CBK266884],130.816%
17,O=C1NC(=O)C(CCCCN2CCCc3ccccc32)N1 (stereo not drawn) [CBK143965],90.8597%
18,c1ccc(OCCN2CCC(Oc3cncc(OCCN4CCOCC4)n3)C2)cc1 (stereo not drawn) [CBK084499],111.086%
19,COc1ccc(C(=O)C2=C(O)C(=O)N(Cc3cccnc3)C2c2cccc(OC)c2OC)cc1C (stereo not drawn) [CBK264906],135.82%
20,O=C(CSc1ccc2nnc(-c3ccccc3)n2n1)NCc1ccco1 [CBK287514],135.487%
21,COc1cc(CNc2ccccc2Cl)ccc1OCC(=O)O [CBK287045],138.594%
22,O=[N+]([O-])c1ccc(Sc2cccc(F)c2)nc1 [CBK002905],106.427%
23,Cc1cccc(C)c1NC(=O)c1nccnc1C(=O)O [CBK260915],108.11%
24,COc1ccc(CNC(=O)c2sc3nc4c(c(C(F)(F)F)c3c2N)CCC4)cc1OC [CBK074568],91.8265%
25,CCn1cc(C(=O)N2CCOC(C(=O)O)C2)c(=O)c2ccc(C)nc21 (stereo not drawn) [CBK307165],124.817%
26,Cc1cc(Cl)c(S(=O)(=O)Nc2ccc(C#N)cc2)cc1OCC(N)=O [CBK266560],109.099%

# An excerpt of these results, tab-delimited.
row	Structure (SMILES)	% of control remaining
22	O=C(O)c1cccc(N2C(=O)c3cccc4c(Cl)ccc(c34)C2=O)c1 [CBK299836]	134.436%
23	COCCCNC(=O)C1CCN(c2nc3c(-c4cccc(C)c4)csc3c(=O)[nH]2)CC1 [CBK215630]	138.93%

# Going on with the list.

row,Structure (SMILES),% of control remaining
1,O=C(CN1CCCC1Cn1cccn1)N1CCCc2ccccc21 (stereo not drawn) [CBK281971],92.4732%
2,Cc1ccc(-n2c(=O)[nH]cc(C(=O)Nc3ccc(C)c(F)c3)c2=O)cc1C [CBK287550],126.649%
3,Cc1ccccc1N1CCC(CNC(=O)CCn2nc(C)c(C)c2C)C1 (stereo not drawn) [CBK307465],165.281%
4,Cc1cccnc1C1(O)CCN(C(=O)Cc2ccccc2F)CC1 [CBK283617],125.007%
5,COC(=O)c1ccc2c(=O)n(CC(C)O)c(SC3CCOC3=O)nc2c1 (stereo not drawn) [CBK304997],119.364%
6,CNC1CCN(S(=O)(=O)c2sc3ccc(C(C)C)cc3c2C)C1 (stereo not drawn) [CBK170067],106.891%
7,CC(CC(=O)O)CC(=O)Nc1ccccc1C(=O)O (stereo not drawn) [CBK265671],100%
8,CCCCC(c1cccnc1)N(C)C(=O)c1cc(C)c(CC)n(C)c1=O (stereo not drawn) [CBK306999],117.408%
9,O=c1[nH]c2ncc(-c3cccnc3)nc2n1CCN1CCOCC1 [CBK065070],101.518%
10,COc1ccc([N+](=O)[O-])cc1NC(=O)c1ccc(-c2cc3ccccc3oc2=O)cc1 [CBK267325],146.281%
11,O=C(NCCc1cccs1)Nc1cc(C(F)(F)F)cc(C(F)(F)F)c1 [CBK043718],71.9211%
12,O=c1c2c3c(sc2n2c(S)nnc2n1Cc1ccccc1)CN(Cc1ccccc1)CC3 [CBK262973],115.095%
13,Cc1ncncc1C(=O)NCC1(c2ccccc2F)CCCC1 [CBK281411],105.949%
14,CCn1c2ccccc2c2cc(CN3CCN(Cc4c[nH]c5ccccc45)CC3)ccc21 [CBK263167],138.032%
15,C=CCNS(=O)(=O)c1ccc(NC(=O)Cc2cccc3ccccc23)cc1 [CBK269379],91.3423%
16,CC(=O)Nc1ccc(CCNC(=O)NCc2nc(C3CC3)no2)cc1 [CBK306221],106.353%
17,O=C(CNC(=O)c1ccccc1F)N/N=C/c1cccs1 [CBK261953],98.8218%
18,c1ccc(CSc2nnc(COc3cccc4ccccc34)n2Cc2ccccc2)cc1 [CBK267215],118.639%
19,COc1cccc(NC(=O)N[C@H]2[C@H](O)[C@@H](N3CCOCC3)[C@@H]3OC[C@H]2O3)c1 [CBK288821],130.985%
20,CCOC(=O)CNc1nc(OC)cc(OC)n1 [CBK093392],91.7064%
21,O=C(NCCCN1CCOCC1)c1ccccc1Br [CBK262602C],120.683%
22,O=C(O)C1CCCN(C(=O)CCc2c[nH]c3ccccc23)C1 (stereo not drawn) [CBK286925],109.347%
23,Clc1ccc(CNCc2cccnc2)cc1 [CBK086257C],144.918%
24,CN1CCC2(CC1)SC(=O)Nc1ccc(Br)cc12 [CBK017821B],108.55%
25,COc1ccc2[nH]c3c(c2c1)CCNC31CCCN(Cc2ccc(OC(F)(F)F)cc2)C1 (stereo not drawn) [CBK039387],90.2791%
26,CS(=O)(=O)c1nc(-c2ccccc2)ns1 [CBK017338],147.77%

# Among those listed so far, these contain an NH in an aromatic ring.
row,Structure (SMILES),% of control remaining
4,Cc1n[nH]c(C)c1C1COCCN1C(=O)c1cccc(F)c1 (stereo not drawn) [CBK305105],132.704%
19,CCc1c[nH]c(SCC(=O)c2cc(C)n(C3CCS(=O)(=O)C3)c2C)n1 (stereo not drawn) [CBK306486],122.848%
23,COCCCNC(=O)C1CCN(c2nc3c(-c4cccc(C)c4)csc3c(=O)[nH]2)CC1 [CBK215630],138.93%
3,C=CCn1c(Cc2csc(NC(=O)c3ccc(C)cc3)n2)n[nH]c1=S [CBK295292],183.115%
5,COc1ccc(-c2n[nH]c(=S)n2CCC(=O)NCCc2cc(C)n(-c3ccccc3)c2C)cc1 [CBK295632],116.152%
12,CC(C)C(=O)Nc1nc2c([nH]c(=O)n2[C@H]2C[C@@H](O)[C@@H](CO)O2)c(=O)[nH]1 [CBK201202],165.501%
13,CN1CCN(CCC(=O)N/N=C/c2c[nH]c3ccccc23)CC1 [CBK261502],106.91%
15,Cc1cnc2[nH]c(C3CCCN(C(=O)c4cn(C)nc4C)C3)cc2c1 (stereo not drawn) [CBK285170],80.7465%
2,Cc1ccc(-n2c(=O)[nH]cc(C(=O)Nc3ccc(C)c(F)c3)c2=O)cc1C [CBK287550],126.649%
9,O=c1[nH]c2ncc(-c3cccnc3)nc2n1CCN1CCOCC1 [CBK065070],101.518%
14,CCn1c2ccccc2c2cc(CN3CCN(Cc4c[nH]c5ccccc45)CC3)ccc21 [CBK263167],138.032%
22,O=C(O)C1CCCN(C(=O)CCc2c[nH]c3ccccc23)C1 (stereo not drawn) [CBK286925],109.347%
25,COc1ccc2[nH]c3c(c2c1)CCNC31CCCN(Cc2ccc(OC(F)(F)F)cc2)C1 (stereo not drawn) [CBK039387],90.2791%

# Source: PMC12040169 (PLOS Biology, 2025)
